Data on 34 molecules can be found in article PMC7039973.

Protein sequences, listed by entry. Tags and fused reporters are not part of them. Lines headed by an entry give the natural chain unless they say otherwise; changes in a name come on top. Chains listed by the source or under a name are the forms on record and can include a tag or linker.
UniProt P16403: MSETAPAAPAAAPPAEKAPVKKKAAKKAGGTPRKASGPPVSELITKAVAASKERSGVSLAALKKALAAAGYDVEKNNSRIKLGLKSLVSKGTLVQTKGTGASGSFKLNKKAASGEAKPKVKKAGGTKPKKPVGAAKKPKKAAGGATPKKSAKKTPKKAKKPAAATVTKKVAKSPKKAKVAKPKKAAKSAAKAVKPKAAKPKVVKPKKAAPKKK
Isoform 2 of Exocyst complex component 7 (Q9UPT5-2, form named): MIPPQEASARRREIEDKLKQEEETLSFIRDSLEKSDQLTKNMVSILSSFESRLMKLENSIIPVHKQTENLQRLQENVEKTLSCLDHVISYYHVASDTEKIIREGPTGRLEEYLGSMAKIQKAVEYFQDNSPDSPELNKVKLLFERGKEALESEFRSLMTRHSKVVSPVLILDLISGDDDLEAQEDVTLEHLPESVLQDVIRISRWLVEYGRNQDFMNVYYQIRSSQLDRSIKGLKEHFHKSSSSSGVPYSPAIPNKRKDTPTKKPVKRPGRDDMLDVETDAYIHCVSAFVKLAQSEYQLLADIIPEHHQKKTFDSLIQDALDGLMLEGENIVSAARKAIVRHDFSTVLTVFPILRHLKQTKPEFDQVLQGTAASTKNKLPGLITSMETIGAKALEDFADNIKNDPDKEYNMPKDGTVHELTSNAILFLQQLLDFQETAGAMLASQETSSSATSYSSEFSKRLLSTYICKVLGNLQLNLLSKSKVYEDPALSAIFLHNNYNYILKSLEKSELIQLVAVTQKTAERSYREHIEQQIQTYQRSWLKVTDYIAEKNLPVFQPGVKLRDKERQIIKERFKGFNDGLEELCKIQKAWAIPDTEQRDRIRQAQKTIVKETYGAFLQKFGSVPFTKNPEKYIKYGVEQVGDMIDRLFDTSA
Isoform 2 of Tropomyosin alpha-3 chain (P06753-2, form named): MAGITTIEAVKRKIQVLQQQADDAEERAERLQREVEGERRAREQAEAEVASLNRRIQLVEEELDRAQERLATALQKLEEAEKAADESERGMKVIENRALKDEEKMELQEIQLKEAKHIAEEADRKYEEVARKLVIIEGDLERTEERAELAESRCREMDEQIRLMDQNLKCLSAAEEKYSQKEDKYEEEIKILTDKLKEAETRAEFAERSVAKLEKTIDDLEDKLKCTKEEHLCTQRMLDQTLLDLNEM
Isoform 9 of Tropomyosin alpha-1 chain (P09493-9, form named): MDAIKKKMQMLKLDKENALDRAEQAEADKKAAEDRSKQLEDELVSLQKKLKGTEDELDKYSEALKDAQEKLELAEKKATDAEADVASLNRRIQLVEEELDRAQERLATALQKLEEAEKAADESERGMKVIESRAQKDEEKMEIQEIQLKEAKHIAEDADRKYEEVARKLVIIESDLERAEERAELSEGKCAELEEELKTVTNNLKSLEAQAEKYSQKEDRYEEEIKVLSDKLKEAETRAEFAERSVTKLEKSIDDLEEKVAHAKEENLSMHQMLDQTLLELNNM
UniProt P60660: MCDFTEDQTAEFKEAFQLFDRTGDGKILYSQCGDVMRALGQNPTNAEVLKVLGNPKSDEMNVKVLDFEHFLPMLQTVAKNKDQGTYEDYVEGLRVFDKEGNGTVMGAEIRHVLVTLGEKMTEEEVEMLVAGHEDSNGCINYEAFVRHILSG
UniProt Q9BUA6: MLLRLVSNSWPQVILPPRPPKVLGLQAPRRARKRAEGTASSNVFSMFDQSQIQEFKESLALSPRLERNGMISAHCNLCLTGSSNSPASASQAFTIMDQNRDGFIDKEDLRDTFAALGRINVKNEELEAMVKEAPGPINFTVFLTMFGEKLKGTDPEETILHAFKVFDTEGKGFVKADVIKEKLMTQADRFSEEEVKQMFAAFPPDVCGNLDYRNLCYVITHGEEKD
UniProt P35579: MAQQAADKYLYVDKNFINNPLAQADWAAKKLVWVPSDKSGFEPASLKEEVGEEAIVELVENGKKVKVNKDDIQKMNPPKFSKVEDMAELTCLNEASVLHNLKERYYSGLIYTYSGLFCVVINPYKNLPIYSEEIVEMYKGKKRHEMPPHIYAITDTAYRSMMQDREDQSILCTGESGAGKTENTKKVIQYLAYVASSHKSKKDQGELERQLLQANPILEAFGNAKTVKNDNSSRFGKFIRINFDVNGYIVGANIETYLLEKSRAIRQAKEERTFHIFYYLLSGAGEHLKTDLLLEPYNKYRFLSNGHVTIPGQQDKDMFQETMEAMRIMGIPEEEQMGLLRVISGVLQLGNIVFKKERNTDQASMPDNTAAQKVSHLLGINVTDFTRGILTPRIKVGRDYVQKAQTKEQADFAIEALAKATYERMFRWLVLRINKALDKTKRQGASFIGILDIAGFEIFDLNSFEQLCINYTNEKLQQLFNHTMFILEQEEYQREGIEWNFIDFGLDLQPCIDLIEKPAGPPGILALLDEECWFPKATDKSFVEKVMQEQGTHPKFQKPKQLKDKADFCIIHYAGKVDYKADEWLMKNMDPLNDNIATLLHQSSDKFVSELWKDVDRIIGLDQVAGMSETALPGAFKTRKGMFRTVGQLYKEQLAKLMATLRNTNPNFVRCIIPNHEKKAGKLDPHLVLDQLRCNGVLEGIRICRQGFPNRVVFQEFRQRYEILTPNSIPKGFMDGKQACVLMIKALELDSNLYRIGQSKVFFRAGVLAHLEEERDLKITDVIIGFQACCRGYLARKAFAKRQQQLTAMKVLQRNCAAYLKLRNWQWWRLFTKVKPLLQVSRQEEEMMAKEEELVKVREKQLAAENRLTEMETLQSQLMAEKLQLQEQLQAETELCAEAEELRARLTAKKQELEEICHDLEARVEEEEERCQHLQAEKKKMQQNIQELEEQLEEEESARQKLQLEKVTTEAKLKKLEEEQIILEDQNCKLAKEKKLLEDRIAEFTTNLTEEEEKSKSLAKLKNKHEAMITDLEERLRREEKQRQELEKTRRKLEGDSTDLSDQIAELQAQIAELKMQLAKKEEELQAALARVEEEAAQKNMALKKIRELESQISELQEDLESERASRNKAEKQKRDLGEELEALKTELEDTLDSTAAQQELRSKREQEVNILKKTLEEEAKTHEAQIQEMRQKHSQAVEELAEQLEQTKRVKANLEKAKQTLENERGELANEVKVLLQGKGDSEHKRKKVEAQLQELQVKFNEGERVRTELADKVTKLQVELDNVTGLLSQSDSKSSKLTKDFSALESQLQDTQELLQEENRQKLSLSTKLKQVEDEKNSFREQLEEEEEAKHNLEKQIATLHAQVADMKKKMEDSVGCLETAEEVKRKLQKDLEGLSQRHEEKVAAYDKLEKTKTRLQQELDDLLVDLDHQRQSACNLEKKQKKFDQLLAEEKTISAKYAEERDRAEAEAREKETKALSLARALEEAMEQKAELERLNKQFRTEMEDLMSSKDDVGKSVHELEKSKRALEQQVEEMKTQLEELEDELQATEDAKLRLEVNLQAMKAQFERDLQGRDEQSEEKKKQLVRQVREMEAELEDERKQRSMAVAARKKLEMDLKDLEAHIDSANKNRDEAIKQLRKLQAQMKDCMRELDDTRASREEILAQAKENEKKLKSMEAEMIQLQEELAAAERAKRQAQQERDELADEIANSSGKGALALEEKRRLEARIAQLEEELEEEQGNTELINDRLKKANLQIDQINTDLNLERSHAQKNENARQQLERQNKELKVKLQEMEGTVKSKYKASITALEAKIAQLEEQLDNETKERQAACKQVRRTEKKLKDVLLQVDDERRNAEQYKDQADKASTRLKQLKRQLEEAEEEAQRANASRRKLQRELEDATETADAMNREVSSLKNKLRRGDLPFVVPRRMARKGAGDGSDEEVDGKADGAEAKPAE
UniProt Q5H9U9: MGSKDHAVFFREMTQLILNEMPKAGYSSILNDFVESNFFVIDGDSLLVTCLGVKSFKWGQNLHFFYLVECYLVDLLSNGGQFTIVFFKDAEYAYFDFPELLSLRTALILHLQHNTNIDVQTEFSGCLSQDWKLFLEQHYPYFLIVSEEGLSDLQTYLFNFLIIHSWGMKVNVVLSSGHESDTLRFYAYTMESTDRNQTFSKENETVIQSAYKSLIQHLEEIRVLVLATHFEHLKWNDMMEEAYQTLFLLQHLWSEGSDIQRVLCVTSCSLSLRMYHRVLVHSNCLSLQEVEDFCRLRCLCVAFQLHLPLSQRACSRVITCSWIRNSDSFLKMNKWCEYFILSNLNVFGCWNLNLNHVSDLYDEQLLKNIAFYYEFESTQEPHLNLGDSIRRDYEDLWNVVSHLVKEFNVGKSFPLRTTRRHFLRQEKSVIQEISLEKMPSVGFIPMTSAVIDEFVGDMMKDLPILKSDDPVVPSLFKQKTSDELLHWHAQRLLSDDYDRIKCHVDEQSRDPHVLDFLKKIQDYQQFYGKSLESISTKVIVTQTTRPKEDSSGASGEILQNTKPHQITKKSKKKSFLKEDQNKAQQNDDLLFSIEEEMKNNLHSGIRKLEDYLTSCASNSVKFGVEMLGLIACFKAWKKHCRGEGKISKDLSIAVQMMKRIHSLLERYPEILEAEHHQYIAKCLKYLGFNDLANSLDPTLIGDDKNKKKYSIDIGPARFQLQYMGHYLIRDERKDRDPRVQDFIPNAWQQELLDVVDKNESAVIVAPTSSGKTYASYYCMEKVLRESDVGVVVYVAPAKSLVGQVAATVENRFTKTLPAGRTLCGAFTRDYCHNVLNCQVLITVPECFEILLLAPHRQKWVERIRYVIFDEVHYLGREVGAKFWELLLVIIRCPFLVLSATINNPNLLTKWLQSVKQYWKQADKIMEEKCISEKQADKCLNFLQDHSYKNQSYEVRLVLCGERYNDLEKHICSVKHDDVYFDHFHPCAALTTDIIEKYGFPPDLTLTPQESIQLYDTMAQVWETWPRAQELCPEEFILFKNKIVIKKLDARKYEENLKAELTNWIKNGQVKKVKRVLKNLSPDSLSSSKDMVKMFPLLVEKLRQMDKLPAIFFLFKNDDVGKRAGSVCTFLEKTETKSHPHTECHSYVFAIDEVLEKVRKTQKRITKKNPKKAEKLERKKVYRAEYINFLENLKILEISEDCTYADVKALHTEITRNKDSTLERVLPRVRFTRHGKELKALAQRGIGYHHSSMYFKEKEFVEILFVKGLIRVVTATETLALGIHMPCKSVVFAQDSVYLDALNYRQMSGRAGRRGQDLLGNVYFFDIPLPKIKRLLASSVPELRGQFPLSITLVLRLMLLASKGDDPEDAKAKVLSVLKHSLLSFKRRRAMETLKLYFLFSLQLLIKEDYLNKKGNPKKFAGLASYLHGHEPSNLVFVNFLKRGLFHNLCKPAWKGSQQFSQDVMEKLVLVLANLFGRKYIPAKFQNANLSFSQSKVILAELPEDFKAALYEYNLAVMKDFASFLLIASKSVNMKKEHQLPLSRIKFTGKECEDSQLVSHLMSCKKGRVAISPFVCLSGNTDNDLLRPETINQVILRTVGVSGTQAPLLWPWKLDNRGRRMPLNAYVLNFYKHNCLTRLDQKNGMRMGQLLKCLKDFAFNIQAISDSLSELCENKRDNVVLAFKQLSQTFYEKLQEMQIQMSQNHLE
UniProt Q5VTE0: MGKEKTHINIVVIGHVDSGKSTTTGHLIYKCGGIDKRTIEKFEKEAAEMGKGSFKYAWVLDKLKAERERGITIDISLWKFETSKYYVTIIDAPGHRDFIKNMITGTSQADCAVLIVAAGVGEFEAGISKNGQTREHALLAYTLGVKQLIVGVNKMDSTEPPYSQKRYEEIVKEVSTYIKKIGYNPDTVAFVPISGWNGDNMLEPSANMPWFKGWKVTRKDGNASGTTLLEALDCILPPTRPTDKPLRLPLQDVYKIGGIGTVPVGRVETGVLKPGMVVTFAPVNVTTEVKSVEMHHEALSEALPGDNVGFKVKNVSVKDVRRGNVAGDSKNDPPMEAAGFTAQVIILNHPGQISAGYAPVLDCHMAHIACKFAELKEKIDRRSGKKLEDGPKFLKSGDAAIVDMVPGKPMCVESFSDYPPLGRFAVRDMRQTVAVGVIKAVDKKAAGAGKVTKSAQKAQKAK
UniProt P08670: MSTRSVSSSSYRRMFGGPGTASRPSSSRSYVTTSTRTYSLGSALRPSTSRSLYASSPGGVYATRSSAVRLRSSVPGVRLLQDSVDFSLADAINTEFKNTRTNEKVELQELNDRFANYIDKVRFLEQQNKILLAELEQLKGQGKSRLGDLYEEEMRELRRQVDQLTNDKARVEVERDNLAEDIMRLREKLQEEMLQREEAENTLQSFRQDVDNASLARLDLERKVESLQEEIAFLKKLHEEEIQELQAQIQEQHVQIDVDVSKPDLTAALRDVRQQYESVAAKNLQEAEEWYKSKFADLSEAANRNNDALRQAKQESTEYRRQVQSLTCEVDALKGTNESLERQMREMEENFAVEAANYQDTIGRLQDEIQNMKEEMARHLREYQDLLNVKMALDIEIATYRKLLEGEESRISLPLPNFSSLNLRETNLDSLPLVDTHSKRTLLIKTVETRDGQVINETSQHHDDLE

No constants are given. Whether binding was seen depends on the method and setting. In cells and extracts the contact can be indirect. A yes stands for co-enrichment or nearness to the bait. Other partners may have been found.

The chains are these.
B1: Ewing's tumor-associated antigen 1 (protein, UniProt Q9NY74 1-926)
chain: MSRRRKHDDSPSPKKTPHKTVAAEECGSVVEPGRRRLRSARGSWPCGAREGPPGPVRQREQPPTAALCSKSNPEERYETPKRALKMDSLSSSFSSPNDPDGQNDIFWDQNSPLTKQLGKGRKKQIYTTDSDEISHIVNRIAPQDEKPTTNSMLDMWIGETAIPCTPSVAKGKSRAKISCTKLKTQSQEEELMKLAKQFDKNMEELDVIQEQNKRNYDFTQMISETEILSNYKDNIQMWSLHNIVPEIDNATKKPIKGNTKISVANNQNSSQKPFDQIAEAAFNAIFDGSTQKCSGQLSQELPEAFWSTSNTTFVKTNALKEEKIITNETLVIEKLSNKTPRSLSSQVDTPIMTKSCVTSCTKEPETSNKYIDAFTTSDFEDDWENLLGSEPFAMQNIDMPELFPSKTAHVTDQKEICTFNSKTVKNTSRANTSPDARLGDSKVLQDLSSKTYDRELIDAEYRFSPNSNKSNKLSTGNKMKFENSSNKIVIQDEIQNCIVTSNLTKIKEDILTNSTEASERKSALNTRYSNEQKNKCILNQSIKAPVNTDLFGSANLGSKTSVSNPNQTSASKVGSFFDDWNDPSFANEIIKACHQLDNTWEADDVDDDLLYQACDDIERLTQQQDIRKDSKTSESICEINNNSEHGAKLTQQQDIRKDSKTSESICEINNNSEHGAKNMFAISKQGSNLVQSKHLNPGSISVQTSLTNSSQIDKPMKMEKGEMYGNSPRFLGATNLTMYSKISNCQINNLHVSYTNTDVPIQVNSSKLVLPGSSSLNVTSDHMNTEITTYKKKLSTNQPCHKTVTDEAQSNLNTTVGFSKFTFTRMKNSQILSQFNQNCITGSMSDTKITQGVEKKKGVNPLLEEAVGQQSLVKLSESLKQSSKEEEEKNRKCSPEEIQRKRQEALVRRMAKARASSVNAAPTSFL
B2: Isoform 2 of Extracellular matrix protein 1 (protein, UniProt Q16610-2 20-415)
chain: ASEGGFTATGQRQLRPEHFQEVGYAAPPSPPLSRSLPMDHPDSSQHGPPFEGQSQVQPPPSQEATPLQQEKLLPAQLPAEKEVGPPLPQEAVPLQKELPSLQHPNEQKEGTPAPFGDQSHPEPESWNAAQHCQQDRSQGGWGHRLDGFPPGRPSPDNLNQICLPNRQHVVYGPWNLPQSSYSHLTRQGETLNFLEIGYSRCCHCRSHTNRLECAKLVWEDTLDKYCDREYAVKTHHHLCCRHPPSPTRDECFARRAPYPNYDRDILTIDIGRVTPNLMGHLCGNQRVLTKHKHIPGLIHNMTARCCDLPFPEQACCAEEEKLTFINDLCGPRRNIWRDPALCCYLSPGDEQVNCFNINYLRNVALVSGDTENAKGQGEQGSTGGTNISSTSEPKEE
B3: Isoform 2 of Ectoderm-neural cortex protein 1 (protein, UniProt O14682-2 1-516)
chain: MFSGGLKESQDSEVNFDNSIHPEVLELLLDYAYSSRVIINEENAESLLEAGDMLEFQDIRDACAEFLEKNLHPTNCLGMLLLSDAHQCTKLYELSWRMCLSNFQTIRKNEDFLQLPQDMVVQLLSSEELETEDERLVYESAINWISYDLKKRYCYLPELLQTVRLALLPAIYLMENVAMEELITKQRKSKEIVEEAIRCKLKILQNDGVVTSLCARPRKTGHALFLLGGQTFMCDKLYLVDQKAKEIIPKADIPSPRKEFSACAIGCKVYITGGRGSENGVSKDVWVYDTLHEEWSKAAPMLVARFGHGSAELKHCLYVVGGHTAATGCLPASPSVSLKQVEHYDPTINKWTMVAPLREGVSNAAVVSAKLKLFAFGGTSVSHDKLPKVQCYDQCENRWTVPATCPQPWRYTAAAVLGNQIFIMGGDTEFSACSAYKFNSETYQWTKVGDVTAKRMSCHAVASGNKLYVVGGYFGIQRCKTLDCYDPTLDVWNSITTVPYSLIPTAFVSTWKHLPS
B4: Perilipin-3 (protein, UniProt O60664 1-434)
chain: MSADGAEADGSTQVTVEEPVQQPSVVDRVASMPLISSTCDMVSAAYASTKESYPHIKTVCDAAEKGVRTLTAAAVSGAQPILSKLEPQIASASEYAHRGLDKLEENLPILQQPTEKVLADTKELVSSKVSGAQEMVSSAKDTVATQLSEAVDATRGAVQSGVDKTKSVVTGGVQSVMGSRLGQMVLSGVDTVLGKSEEWADNHLPLTDAELARIATSLDGFDVASVQQQRQEQSYFVRLGSLSERLRQHAYEHSLGKLRATKQRAQEALLQLSQVLSLMETVKQGVDQKLVEGQEKLHQMWLSWNQKQLQGPEKEPPKPEQVESRALTMFRDIAQQLQATCTSLGSSIQGLPTNVKDQVQQARRQVEDLQATFSSIHSFQDLSSSILAQSRERVASAREALDHMVEYVAQNTPVTWLVGPFAPGITEKAPEEKK
B5: Probable inactive serine protease 37 (protein, UniProt A4D1T9 20-235)
chain: SVQKEDPAPYLVYLKSHFNPCVGVLIKPSWVLAPAHCYLPNLKVMLGNFKSRVRDGTEQTINPIQIVRYWNYSHSAPQDDLMLIKLAKPAMLNPKVQPLTLATTNVRPGTVCLLSGLDWSQENSGRHPDLRQNLEAPVMSDRECQKTEQGKSHRNSLCVKFVKVFSRIFGEVAVATVICKDKLQGIEVGHFMGGDVGIYTNVYKYVSWIENTAKDK
B6: Fanconi anemia group B protein (protein, UniProt Q8NB91 1-859)
chain: MTSKQAMSSNEQERLLCYNGEVLVFQLSKGNFADKEPTKTPILHVRRMVFDRGTKVFVQKSTGFFTIKEENSHLKIMCCNCVSDFRTGINLPYIVIEKNKKNNVFEYFLLILHSTNKFEMRLSFKLGYEMKDGLRVLNGPLILWRHVKAFFFISSQTGKVVSVSGNFSSIQWAGEIENLGMVLLGLKECCLSEEECTQEPSKSDYAIWNTKFCVYSLESQEVLSDIYIIPPAYSSVVTYVHICATEIIKNQLRISLIALTRKNQLISFQNGTPKNVCQLPFGDPCAVQLMDSGGGNLFFVVSFISNNACAVWKESFQVAAKWEKLSLVLIDDFIGSGTEQVLLLFKDSLNSDCLTSFKITDLGKINYSSEPSDCNEDDLFEDKQENRYLVVPPLETGLKVCFSSFRELRQHLLLKEKIISKSYKALINLVQGKDDNTSSAEEKECLVPLCGEEENSVHILDEKLSDNFQDSEQLVEKIWYRVIDDSLVVGVKTTSSLKLSLNDVTLSLLMDQAHDSRFRLLKCQNRVIKLSTNPFPAPYLMPCEIGLEAKRVTLTPDSKKEESFVCEHPSKKECVQIITAVTSLSPLLTFSKFCCTVLLQIMERESGNCPKDRYVVCGRVFLSLEDLSTGKYLLTFPKKKPIEHMEDLFALLAAFHKSCFQITSPGYALNSMKVWLLEHMKCEIIKEFPEVYFCERPGSFYGTLFTWKQRTPFEGILIIYSRNQTVMFQCLHNLIRILPINCFLKNLKSGSENFLIDNMAFTLEKELVTLSSLSSAIAKHESNFMQRCEVSKGKSSVVAAALSDRRENIHPYRKELQREKKKMLQTNLKVSGALYREITLKVAEVQLKSDFAAQKLSNL

The target of this assay is T1, Protein S100-A16, overexpressed from lentivirus (human) (UniProt Q96FQ6).
T1 sequence: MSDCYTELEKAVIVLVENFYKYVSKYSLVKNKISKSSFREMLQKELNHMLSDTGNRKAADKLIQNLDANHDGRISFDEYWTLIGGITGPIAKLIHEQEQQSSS
As to the kind of experiment: affinity purification with mass spectrometry; HK-2 cells stably overexpressing S100A16 or scramble-transduced, lysed with RIPA; lysates immunoprecipitated with anti-S100A16 antibody; LC-MS/MS (LTQ-Orbitrap).
“78 kDa glucose-regulated protein (from UniProt P11021 19-654)”: the binding entry is recorded as “binds”.

Regarding “ATP synthase subunit beta mitochondrial (from UniProt P06576 48-529)”, the binding entry is on record as “binds”.

With “ATP-binding cassette sub-family A member 2 (from UniProt Q9BZC7 1-2435)”, the binding result is given as “binds”.

Turning to “Abnormal spindle-like microcephaly-associated protein (from UniProt Q8IZT6 1-3477)”, the binding entry was “binds”.

“Golgin subfamily A member 4 (from UniProt Q13439 1-2230)”: the binding result is reported as “binds”.

Take “Histone H1.2 (from UniProt P16403 1-213)”: the binding result is “binds”.

For “Isoform 2 of Exocyst complex component 7 (from UniProt Q9UPT5-2 1-653)”, the binding result is reported as “binds”.

In the case of “Isoform 2 of Kinesin-like protein KIF1B (from UniProt O60333-2 1-1770)”, the binding entry is recorded as “binds”.

For the molecule “Isoform 2 of Kinesin-like protein KIF26B (from UniProt Q2KJY2-2 1-1725)”, the binding entry is “binds”.

“Isoform 2 of Ryanodine receptor 1 (from UniProt P21817-2 1-5033)”: the binding result is “binds”.

As to “Isoform 2 of Tropomyosin alpha-3 chain (from UniProt P06753-2 1-248)”, the binding entry is listed as “binds”.

As for “Isoform 5 of Trypsin-3 (human (endogenous in HK-2))”, the binding result is given as “binds”.

For “Isoform 9 of Tropomyosin alpha-1 chain (from UniProt P09493-9 1-284)”, the binding result is reported as “binds”.

“Microtubule-associated protein (from UniProt P27816 1-1152)”: the binding result is “binds”.

Turning to “Myosin light polypeptide 6 (from UniProt P60660 1-151)”, the binding result is “binds”.

“Myosin regulatory light chain 10 (from UniProt Q9BUA6 1-226)”: the binding result is “binds”.

Myosin-9 (from UniProt P35579 1-1960): the binding result was “binds”.

“Nipped-B-like protein (from UniProt Q6KC79 1-2804)”: the binding result was “binds”.

In the case of “Nuclease-sensitive element-binding protein 1 (from UniProt P67809 1-324)”, the binding result is reported as “binds”.

Consider Plexin-A2 (from UniProt O75051 35-1894), for which the binding result is listed as “binds”.

For “Probable ATP-dependent RNA helicase DDX60-like (from UniProt Q5H9U9 1-1706)”, the binding entry was “binds”.

On to Protease serine 1 (from UniProt P07477), for which the binding entry is given as “binds”.

As for “Putative elongation factor 1-alpha-like 3 (from UniProt Q5VTE0 1-462)”, the binding entry is listed as “binds”.

As for “Regulation of nuclear pre-mRNA domain-containing protein 2 (from UniProt Q5VT52 1-1461)”, the binding result is recorded as “binds”.

Take “Ryanodine receptor 2 (from UniProt Q92736 1-4967)”: the binding entry is recorded as “binds”.

For the molecule “Transforming acidic coiled-coil-containing protein 2 (from UniProt O95359 1-2948)”, the binding entry was “binds”.

With Usherin (from UniProt O75445 32-5202), the binding result is given as “binds”.

For the molecule Vimentin (from UniProt P08670 1-466), the binding result was “binds”.

With B1, the binding entry is “binds”.

Turning to B2, the binding result is “binds”.

Take B3: the binding entry was “binds”.

B4: the binding entry is recorded as “binds”.

Regarding B5, the binding entry is given as “binds”.

As to B6, the binding entry is “binds”.
